# Reference: PubChem BioAssay AID493014 (National Center for Advancing Translational Sciences (NCATS), 2011)
# Some of the results follow. These are further read-outs of the screen, such as a control signal, another cell line or another target. No call is given for them. The list favours compounds with an active or inconclusive main result. Words in brackets tell the shape of the fitted curve; partial curves, single points and poor fits give uncertain potencies.
# Assay: qHTS Assay to Find Inhibitors of Chronic Active B-Cell Receptor Signaling
# Settings: ABC-DLBCL IkBa-CBG/CBR reporter, luminescence ratio (green luciferase fused to IkBa over red control in TMD8 lymphoma cells), 4 h
# Outline: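 Doxycycline induced both beetle luciferases in TMD8 lymphoma cells; IKK-driven degradation limits the IkappaBalpha-fused green signal, while red luminescence normalises for cell number and nonspecific effects. Compounds tested up to 46 uM, 4 hrs.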
# [1] = measured here: CBR red luminescence, cell number
# [2] = measured here: IkBa-CBG green luminescence
SMILES,AC50 [1],AC50 [2]
COc1ccccc1-n1cnc2cc(C(=O)NC3CCCC3)ccc21,"9.2 µM [falling, partial curve, poor fit]",–
CCCOC(=O)c1ccc(NC(=O)COC)cc1,"16.4 µM [rising, partial curve]",–
O=C(CSCc1ccco1)c1ccc(Cl)s1,"15.8 µM [rising, partial curve]",–
Fc1ccccc1/C=C/c1ccc2ccccc2n1,"11.6 µM [falling, partial curve]",–
COc1cc(NC(=O)CSc2nccc(C)n2)c(C)cc1[N+](=O)[O-],"11.6 µM [rising, partial curve]","3.26 µM [falling, partial curve, poor fit]"
CCc1cc(N2CCOCC2)cc2c1[nH]c1ccccc12,"0.631 µM [falling, partial curve, poor fit]",–
Cc1ccc(C(=O)NCCC2=CCCCC2)cc1S(=O)(=O)N1CCOCC1,"6.51 µM [rising, single point]",–
CN(CCOc1ccccc1)C(=O)c1ccc(OC2CCN(C(=O)C3CC3)CC2)cc1,"35.5 µM [rising, single point]",–
CCOc1ccc(OCC(=O)OCC(=O)NCC2CCCO2)cc1 (stereo not given),"18.4 µM [rising, partial curve, poor fit]",–
CCOC(=O)c1c(NC(C)=O)sc2c(O)cccc12,"15.8 µM [falling, single point]",–
Cc1ccc(Cl)cc1NC(=O)COC(=O)CC(C)(C)C,"25.1 µM [falling, partial curve, poor fit]",–
Cc1nn(C)c(C(=O)Sc2ccccc2)c1[N+](=O)[O-],"35.5 µM [rising, single point]","35.5 µM [falling, single point]"
N/C(=N\O)c1ccc(NC(=O)c2cccs2)cc1,"5.62 µM [falling, full curve]",–
COC(=O)c1[nH]c2ccccc2c1NS(=O)(=O)c1ccc(OC)cc1OC,"6.51 µM [rising, single point]",–
CCn1c(=O)[nH]c(=O)c2c(N)c(C(=O)c3ccccc3OC)sc21,"25.9 µM [rising, partial curve, poor fit]",–
CN(C)S(=O)(=O)c1ccc2c(c1)c(=O)c(C(=O)N1CCN(c3ccccn3)CC1)cn2C,–,"4.47 µM [rising, full curve, poor fit]"
Oc1ccc(Nc2nc(N3CCCC3)c3ccccc3n2)cc1,"11.2 µM [falling, single point]",–
CC(C)N(C(=S)NCc1ccccc1)C(C)C,"14.1 µM [rising, single point]",–
Cc1cc(C(=O)COC(=O)c2ccc(O)cc2)c(C)n1CCc1ccc(F)cc1,"11.2 µM [falling, partial curve, poor fit]",–
CSC1=N/C(=C\c2ccc(Cl)cc2)C(=O)N1N(C)C,"15.8 µM [rising, partial curve, poor fit]",–
COc1ccc(C(=O)N/N=C/c2ccc3cccc(O)c3n2)cc1,"22.4 µM [falling, single point]",–

SMILES,AC50 [1],AC50 [2]
Cc1ccccc1NC(=O)c1cccc(N2C(=O)C3CCCCC3C2=O)c1 (stereo not given),"35.5 µM [falling, single point]",–
Oc1ccccc1N1CCN(c2ncnc3scc(-c4ccccc4)c23)CC1,"7.94 µM [falling, partial curve, poor fit]",–
CC1(C)C2CC=C(/C=N/NC(=O)C3CC3)C1C2 (stereo not given),"0.112 µM [rising, full curve, poor fit]",–
COc1ccc2oc(-c3ccc(C)c(NC(=O)c4cccnc4)c3)nc2c1,"14.1 µM [rising, partial curve, poor fit]",–
C/C(=N/NC(N)=S)c1ccc(Br)s1,–,"22.4 µM [falling, single point]"
COc1ccccc1-n1cnc2cc(NC(C)=O)ccc21,"14.6 µM [falling, partial curve, poor fit]",–
O=C(NC1CCCCC1)NC1CC2CCC(C1)N2Cc1nnnn1Cc1ccc2c(c1)OCO2 (stereo not given),"1.58 µM [rising, partial curve, poor fit]",–
COc1cc(C(=O)Nc2ccc(S(=O)(=O)NC(C)(C)C)cc2)cc(OC)c1OC,"2.06 µM [falling, full curve, poor fit]",–
Cc1cc(C)c(NC(=S)N(C)C)c(C)c1,"6.31 µM [falling, single point]",–
Cc1cc(C)c(C)c(OCCOCCNCc2ccccc2)c1,"29.1 µM [falling, single point]",–
O=C(NC1CCN(Cc2ccccc2)CC1)c1ccccc1OCc1ccccc1Cl,"35.5 µM [falling, single point]",–
O=C(Nc1ccccc1)N1CCc2ccccc21,"18.4 µM [falling, single point]",–
O=C(Nc1cccc(F)c1)Nc1ccnn1C1CCN(C(=O)c2cscn2)CC1,"11.2 µM [rising, partial curve]",–
O=C(COc1ccc2c(-c3ccccc3)cc(=O)oc2c1)NCc1cccs1,"11.2 µM [rising, partial curve]",–
CCC(Sc1nc2ccccc2o1)C(=O)Nc1nnc(C)s1 (stereo not given),"29.1 µM [falling, single point]","29.1 µM [falling, single point]"
CCc1ccc2c(COC(=O)CNS(=O)(=O)c3ccc(NC(C)=O)cc3)cc(=O)oc2c1,"29.1 µM [rising, single point]","32.6 µM [falling, partial curve, poor fit]"
CSc1ccccc1NC(=O)c1ccncc1,"1.84 µM [rising, full curve, poor fit]",–
COc1ccc(C(=O)COC(=O)c2n[nH]c3ccccc23)c(OC)c1,"1.46 µM [falling, full curve]",–
COCCNC(=O)c1c(N)n(CCCn2ccnc2)c2nc3ccccc3nc12,"25.1 µM [falling, single point]",–
O=C(NCc1cccs1)C1CC(=O)N(c2ccc(Cl)cc2)C1 (stereo not given),"22.4 µM [falling, single point]",–
O=C(CSc1cccc[n+]1[O-])c1ccccc1Br,"0.631 µM [falling, full curve, poor fit]","0.631 µM [falling, partial curve, poor fit]"

SMILES,AC50 [1],AC50 [2]
Cc1ccc(-c2cc(C(F)(F)F)n3nc(C(=O)NCCCn4ccnc4)cc3n2)cc1C,"2.06 µM [rising, partial curve, poor fit]",–
CCOc1cc(/C=C2\N=C(SC)SC2=O)cc([N+](=O)[O-])c1OC(C)=O,"12.6 µM [falling, partial curve]",–
CC(C)c1nnc(NC(=O)C2CCCN2S(=O)(=O)c2ccc(Cl)cc2)s1 (stereo not given),"14.1 µM [rising, partial curve, poor fit]",–
CC(O)CNc1nc2ccccc2n1-c1ncnc2sc3c(c12)CCC3 (stereo not given),"35.5 µM [falling, single point]",–
CSc1ccccc1C(=O)Nc1cccc(C(C)=O)c1,"29.1 µM [rising, single point]",–
C=CCCCCCCCCc1nc(SCC(=O)O)n[nH]1,"35.5 µM [falling, partial curve, poor fit]",–
Cc1cccc(C(=O)Nc2nnc(-c3ccncc3)o2)c1,"7.94 µM [falling, partial curve]",–
COc1ccc(Cl)cc1C(=O)NNC(=O)COC(=O)c1cccs1,"14.6 µM [rising, partial curve, poor fit]",–
COc1cc(/C=C/C(=O)Nc2ccc(C(C)=O)cc2)cc(OC)c1OC,"2.91 µM [rising, single point]",–
Cc1ccc(C)c(SCC(=O)Nc2cc(C)nn2-c2ccc(F)cc2)c1,"32.6 µM [falling, partial curve, poor fit]",–
O=C(COc1coc(CN2CCN(c3ccccc3)CC2)cc1=O)Nc1ccc(F)cc1,"2.59 µM [falling, full curve]",–
CCOc1ccc(NC(=S)N2CCc3cc(OC)c(OC)cc3C2COc2ccc3c(C)cc(=O)oc3c2)cc1 (stereo not given),"1.16 µM [rising, partial curve, poor fit]",–
CCc1ccc(C(=O)CSc2ncn[nH]2)cc1,"14.1 µM [falling, partial curve, poor fit]",–
Cc1cc2nc(C3CCCN(C(=S)Nc4ccccc4C)C3)[nH]c2cc1C (stereo not given),"2.82 µM [falling, partial curve, poor fit]",–
O=S(=O)(c1ccccc1)C(/C=N\O)/C=C/c1ccccc1 (stereo not given),"35.5 µM [falling, single point]",–
Cc1ccc2nc(-c3ccc(O)cc3)c(Nc3ccc4c(c3)OCCO4)n2c1,"12.6 µM [falling, partial curve]",–
Cc1cccc(C=Nc2ccccc2C(N)=O)c1,"32.6 µM [rising, single point]",–
COc1ccc(N2CCN(C(=O)C3CCCO3)CC2)cc1 (stereo not given),"18.4 µM [rising, partial curve]",–
O=C1c2ccccc2C(O)N1c1ccc(Cl)cc1 (stereo not given),"20.6 µM [falling, partial curve]","16.4 µM [rising, partial curve, poor fit]"
CCOC(=O)c1c(NC(C)=O)sc2c1CCC(C=O)=C2Sc1ccccc1,"29.1 µM [falling, single point]",–
CCCCOc1ccc(C(=O)CCN2CCOCC2)cc1,"35.5 µM [falling, single point]","15.8 µM [rising, single point]"
